In the supplement of paper PMC7858590:
Where “and” joins values, the source holds several entries; their conditions need not be identical. Equal entries are not always repeated. ± gives the standard deviation of the averaged measurements. Over roughly 3,800 compounds, “cell shape (eccentricity) Z-score vs DMSO control” has its median near 1.1; the lowest 2% begin near -4.7. This is one part of the list.

These molecules were tested on human monocyte-derived macrophages (M0) (assay: cell shape (eccentricity) Z-score vs DMSO control; higher = more elongated, M2-like morphology). Details: 20 µM; 24 h; macrophage state: M0 (M-CSF).

Going from `O=C(OCCN1CCOCC1)C1(c2ccccc2)CCCCC1` to `Cc1c[nH]c(=O)n(CCCN2CCN(c3ccccc3OCC(F)(F)F)CC2)c1=O`, the “cell shape (Z-score)” value falls from 3.82 to 0.795.

First: Cn1c(=O)c2nc(C3CCCC3)[nH]c2n(C)c1=O
Second: CC(=O)O[C@@H]1CC2C(C)(C)C(=O)CC[C@]2(C)C2CC[C@@]3(C)[C@H](c4ccoc4)OC(=O)C4OC43[C@@]21C (stereo partly drawn)
The “cell shape (Z-score)” value of the first is higher: 2.94 for the first, -5.48 for the second.

First: c1ccc(CC2=NCCN2)cc1
Second: CC1c2ccccc2CN1CC1=NCCN1 (stereo not drawn)
The “cell shape (Z-score)” value of the first is higher: 4.43 for the first, 0.991 for the second.

First: COc1cc([C@@H]2[C@H]3CO[C@@]4(O)C(=O)[C@@H]2C=C([C@H]2Oc5cc(O)cc(O)c5C(=O)[C@@H]2O)[C@@H]34)ccc1O
Second: COc1cc(-c2oc3cc(O)cc(O)c3c(=O)c2OC2OC(CO)C(O)C(O)C2O)ccc1O (stereo not drawn)
The “cell shape (Z-score)” value of the first is higher: 1.58 for the first, 1.26 for the second.

Going from `COC(=O)c1ccccc1O[C@@H]1O[C@H](CO[C@@H]2OC[C@@H](O)[C@H](O)[C@H]2O)[C@@H](O)[C@H](O)[C@H]1O` to `O=C(OCc1cccc(O)c1O[C@@H]1O[C@H](CO)[C@@H](O)[C@H](O)[C@H]1O)C1(O)C(=O)C2C3C4C5C(C(=O)C(O)(C(=O)OCc6cccc(O)c6O[C@@H]6O[C@H](CO)[C@@H](O)[C@H](O)[C@H]6O)C2C53)C41` (stereo partly drawn), the “cell shape (Z-score)” value rises from -0.546 to 5.61.

`COC(=O)C1(Cc2ccc(O)cc2)OC(=O)C(=O)C1c1ccc(O)cc1` (stereo not drawn) and `COc1c(-c2ccc(O)cc2)oc2cc(O)cc(O)c2c1=O` are within error of each other in “cell shape (Z-score)” value: 1.29 ± 0.39 for the first, 1.17 for the second.

Going from `O=S(=O)(c1ccccc1)N(CC(F)(F)F)c1ccc(C(O)(C(F)(F)F)C(F)(F)F)cc1` to `COc1ccc(S(=O)(=O)N2CCN(S(=O)(=O)c3ccc4c(c3)OCCO4)CC2)cc1`, the “cell shape (Z-score)” value falls from 4.2 to 1.21.

First: OC1(c2ccc3c(c2)OCO3)OCC2C(c3ccc4c(c3)OCO4)OCC21O (stereo not drawn)
Second: COc1ccc2c(c1)OCC(Cc1ccc(OC)c(OC(C)=O)c1)C2=O (stereo not drawn)
The “cell shape (Z-score)” value of the first is higher: 1.82 for the first, -1.55 for the second.

Going from `CCC(=O)OCN1C(=O)C=CC1=O` to `C=C1C2(C)OC(=O)C34OC2C2=C(CO)C5(CCC2(C)C13C(=O)OC4C)C(O)CC(=O)OC5(C)C` (stereo not drawn), the “cell shape (Z-score)” value falls from 2.44 to -0.334.

Compared with `CC1OC(OC2C(OC(=O)C34CCC(C)(C)CC3C3=CCC5C6(C)CCC(OC7OC(CO)C(OC8OC(C(=O)O)C(OC9OCC(O)C(O)C9O)C(O)C8O)C(O)C7O)C(C)(CO)C6CCC5(C)C3(C)CC4)OC(COC3OCC(O)C(O)C3O)C(O)C2O)C(O)C(O)C1O` (stereo not drawn), `CN1CCc2cccc3c2C1Cc1ccc(O)c(O)c1-3` (stereo not drawn) is lower in “cell shape (Z-score)” value: 0.578 for the first, -1.88 for the second.

First: CSC(N)=C(C#N)C(C#N)=C(N)SC
Second: Cn1cncc1[C@](N)(c1ccc(Cl)cc1)c1ccc2c(c1)c(-c1cccc(Cl)c1)cc(=O)n2C
The “cell shape (Z-score)” value of the first is lower: 0.948 for the first, 3.63 for the second.

For `CC/C(=C(\c1ccccc1)c1ccc(OCCN(C)C)cc1)c1ccccc1`, the “cell shape (Z-score)” value was -1.52 and -1.41 and -1.25.
